Source: PMC9038752, “Molecular mechanisms of bifunctional vitamin D receptor agonist-histone deacetylase inhibitor hybrid molecules in triple-negative breast cancer” (Scientific Reports, 2022)

Experiments:
class I HDAC = tested on: class I HDAC; parameters: method as in PMID 9501205; settings: 100 nM; cited from earlier work
4TO7 cells = experiment: RNAseq gene expression profiling in 4TO7 cells; assay type: cell-based, mouse; settings: relative to control
Description: Cells were treated for 6 h to focus more on genes directly regulated by the VDR, or for 24 or 48 h to gain insight into longer-term effects on gene expression.
McGill Genome Centre performed a quality control before sequencing in paired-end at 50 M reads by Illumina NovaSeq 6000 S4 PE100. Sets of genes regulated in the different conditions were sent to us and downstream analysis were performed.
Table S1 and Table S2 : See Excel files with RNAseq results and analysis
48 hours prior to RNA extraction. Samples were prepared in triplicate and run on Illumina NovaSeq 6000 S4
PE100. For assessing differential gene expression for RNAseq data, the LIMMA package inR was used.
RNAseq results and statistical analyses from D, S, S+D, DK-406, and AM-193 conditions measured relative to
AM-193 for 6 or 24 hours prior to RNA extraction . Samples were prepared in triplicate and run on Illumina
NovaSeq 6000 S4 PE100. For assessing differential gene expression for RNAseq data, the LIMMA package in R was […]

[1] = 6 h, RNAseq Supplemental table 1
[2] = 6 h, RNAseq Supplemental table 2, 1 µM AM-193, 10 µM DK-406, 100 nM 1,25D and SAHA
[3] = 24 h, RNAseq Supplemental table 2, 1 µM AM-193, 10 µM DK-406, 100 nM 1,25D and SAHA
[4] = 48 h, RNAseq Supplemental table 1

O=C(CCCCCCC(=O)Nc1ccccc1)NO [SAHA, Suberoylanilide hydroxamic acid]
inhibition of class I HDAC activity in vitro (class I HDAC): almost complete inhibition
Aaas 6h Log Fold (4TO7 cells; [1]): 1.057
Aacs 6h Log Fold (4TO7 cells; [1]): -1.025
Aaed1 6h Log Fold (4TO7 cells; [1]): 1.001
Aagab 6h Log Fold (4TO7 cells; [1]): 1.064
Aak1 6h Log Fold (4TO7 cells; [1]): 1.124
Aaas 6h Log Fold (4TO7 cells; [2]): 0.032
Aacs 6h Log Fold (4TO7 cells; [2]): -0.077
Aagab 6h Log Fold (4TO7 cells; [2]): 0.054
Aak1 6h Log Fold (4TO7 cells; [2]): 0.064
Aamdc 6h Log Fold (4TO7 cells; [2]): -0.024
Aaas 24h Log Fold (4TO7 cells; [3]): 0.096
Aacs 24h Log Fold (4TO7 cells; [3]): 9.68e-5
Aagab 24h Log Fold (4TO7 cells; [3]): 0.109
Aak1 24h Log Fold (4TO7 cells; [3]): -0.325
Aamdc 24h Log Fold (4TO7 cells; [3]): 0.520
Aaas 48h Log Fold (4TO7 cells; [4]): -1.020
Aacs 48h Log Fold (4TO7 cells; [4]): 1.032
Aaed1 48h Log Fold (4TO7 cells; [4]): -1.034
Aagab 48h Log Fold (4TO7 cells; [4]): 1.022
Aak1 48h Log Fold (4TO7 cells; [4]): -1.015
